Test results reported in patent publication US20100160326A1, “PEST CONTROL AGENT CONTAINING NOVEL PYRIDYL-METHANAMINE DERIVATIVE OR SALT THEREOF” (ISHIHARA SANGYO KAISHA, LTD., priority 2006, published 2010).
Some entries share one result that the patent states for a list of compounds.

Tests used:
Assay type in all cases: in vivo
[1] = tested on: Two-Spotted Spider Mite (Tetranychus urticae); test: Test on adults of two-spotted spider mite (kidney bean leaf dip); settings: 800 ppm, adults dipped together with kidney bean leaf, second or third day after the treatment, 25° C.
Excerpt: Test on Adults of Two-Spotted Spider Mite (Tetranychus urticae)
Mortality of adults (%)=(Number of dead two-spotted spider mites/Number of treated two-spotted spider mites)×100

[2] = tested on: Green Peach Aphid (Myzus persicae); test: Test on controlling effects against green peach aphid (leaf dip); settings: 800 ppm, Japanese radish leaf dipped about 10 seconds, first instar nymphs, counted 5 days after the treatment, 25° C.
Excerpt: Test on Controlling Effects Against Green Peach Aphid (Myzus persicae)
Mortality (%)=(1−(number of survived insects/number of treated insects))×100

[3] = tested on: Common Cutworm (Spodoptera litura); test: Test on controlling effects against common cutworm (cabbage leaf disk dip); settings: 800 ppm, cabbage leaf disk dipped about 10 seconds, second-third instar larvae, fifth day after the release, 25° C.
Excerpt: Test on Controlling Effects Against Common Cutworm (Spodoptera litura)
Mortality (%)=(Number of dead larvae/number of released larvae)×100

O=C(CN(Cc1ccccn1)c1cc(C(F)(F)F)c(Cl)c(Cl)n1)N1CCOCC1 [compound 235]
at least 90%: mortality of adults [1] | mortality [2] | mortality [3]

Fc1ccc(CN(Cc2ccccn2)c2cc(C(F)(F)F)c(Cl)c(C(F)(F)F)n2)nc1 [compound 292]
at least 90%: mortality of adults [1] | mortality [2] | mortality [3]

[O-][S+]1CCOC1CN(Cc1ccccn1)c1cc(C(F)(F)F)c(Cl)c(Cl)n1 (stereo not drawn) [compound 261]
at least 90%: mortality of adults [1] | mortality [2] | mortality [3]

Cc1ncccc1CN(Cc1ccccn1)c1cc(C(F)(F)F)c(Cl)c(C(F)(F)F)n1 [compound 310]
at least 90%: mortality of adults [1] | mortality [2] | mortality [3]

FC(F)(F)c1cc(N(Cc2ccccn2)CC2OCCO2)nc(Cl)c1Cl [compound 256]
at least 90%: mortality of adults [1] | mortality [2] | mortality [3]

Fc1cccc(CN(Cc2ccccn2)c2cc(C(F)(F)F)c(Cl)c(Cl)n2)n1 [compound 298]
at least 90%: mortality of adults [1] | mortality [2] | mortality [3]

FC(F)(F)c1cc(N(Cc2ccccn2)Cc2cccc(-c3ccccn3)n2)nc(Cl)c1Cl [compound 300]
at least 90%: mortality of adults [1] | mortality [2] | mortality [3]

FC(F)(F)c1cc(N(Cc2ccccn2)Cc2cscn2)nc(Cl)c1Cl [compound 100]
at least 90%: mortality of adults [1] | mortality [2] | mortality [3]

CC[S+]([O-])CCN(Cc1ccccn1)c1cc(C(F)(F)F)c(Cl)c(Cl)n1 (racemic) [compound 206]
at least 90%: mortality of adults [1] | mortality [2] | mortality [3]

Cc1cccc(CN(Cc2ccccn2)c2cc(C(F)(F)F)c(C#N)c(Cl)n2)n1 [compound 293]
at least 90%: mortality of adults [1] | mortality [2] | mortality [3]

CCSC(CN(Cc1ccccn1)c1cc(C(F)(F)F)c(Cl)c(Cl)n1)OC (racemic) [compound 217]
at least 90%: mortality of adults [1] | mortality [2] | mortality [3]

FC(F)(F)c1cc(N(Cc2ccccn2)CC2SCCCS2)nc(Cl)c1Cl [compound 263]
at least 90%: mortality of adults [1] | mortality [2] | mortality [3]

CN(C)c1nc(N(Cc2ccccn2)Cc2ccccn2)cc(C(F)(F)F)c1C#N [compound 321]
at least 90%: mortality of adults [1] | mortality [2] | mortality [3]

Cc1ncccc1CN(Cc1ccccn1)c1cc(C(F)(F)F)c(C#N)c(Cl)n1 [compound 309]
at least 90%: mortality of adults [1] | mortality [2] | mortality [3]

CC1(C)OCC(CN(Cc2ccccn2)c2cc(C(F)(F)F)c(Cl)c(Cl)n2)O1 (stereo not drawn) [compound 259]
at least 90%: mortality of adults [1] | mortality [2] | mortality [3]

Cc1ncccc1CN(Cc1ccccn1)c1cc(C(F)(F)F)c(Cl)c(Cl)n1 [compound 308]
at least 90%: mortality of adults [1] | mortality [2] | mortality [3]

FC(F)(F)c1cc(N(Cc2ccccn2)Cc2cnccn2)nc(Cl)c1Cl [compound 96]
at least 90%: mortality of adults [1] | mortality [2] | mortality [3]

COc1c(NCc2ccccn2)nc(C(F)(F)F)c(Cl)c1C(F)(F)F [compound 186]
at least 90%: mortality of adults [1] | mortality [2] | mortality [3]

COc1cccnc1CN(Cc1ccccn1)c1cc(C(F)(F)F)c(Cl)c(Cl)n1 [compound 146]
at least 90%: mortality of adults [1] | mortality [2] | mortality [3]

Cc1cc(CN(Cc2ccccn2)c2cc(C(F)(F)F)c(Cl)c(Cl)n2)ccn1 [compound 313]
at least 90%: mortality of adults [1] | mortality [2] | mortality [3]

CC(c1cnccn1)N(Cc1ccccn1)c1cc(C(F)(F)F)c(C#N)c(Cl)n1 (stereo not drawn) [compound 316]
at least 90%: mortality of adults [1] | mortality [2] | mortality [3]

FC(F)(F)c1cc(N(Cc2cccnc2)Cc2ccccn2)nc(Cl)c1Cl [compound 53]
at least 90%: mortality of adults [1] | mortality [2] | mortality [3]

N#Cc1cccc(CN(Cc2ccccn2)c2cc(C(F)(F)F)c(Cl)c(Cl)n2)n1 [compound 306]
at least 90%: mortality of adults [1] | mortality [2] | mortality [3]

FC(F)(F)c1cc(N(Cc2ccccn2)Cc2cccc(Br)n2)nc(Cl)c1Cl [compound 297]
at least 90%: mortality of adults [1] | mortality [2] | mortality [3]

Cc1cccnc1CN(Cc1ccccn1)c1cc(C(F)(F)F)c(Cl)c(Cl)n1 [compound 147]
at least 90%: mortality of adults [1] | mortality [2] | mortality [3]

Fc1cccc(CN(Cc2ccccn2)c2cc(C(F)(F)F)c(Cl)c(C(F)(F)F)n2)n1 [compound 299]
at least 90%: mortality of adults [1] | mortality [2] | mortality [3]

Cc1ncccc1CN(Cc1ccccn1)c1cc(C(F)(F)F)c(Br)c(C(F)(F)F)n1 [compound 317]
at least 90%: mortality of adults [1] | mortality [2] | mortality [3]

Cc1c(NCc2ccccn2)nc(C(F)(F)F)c(Cl)c1C(F)(F)F [compound 182]
at least 90%: mortality of adults [1] | mortality [2] | mortality [3]

COCCN(Cc1ccccn1)c1cc(C(F)(F)F)c(Cl)c(Cl)n1 [compound 148]
at least 90%: mortality of adults [1] | mortality [2] | mortality [3]

CCN(CC)C(=O)CN(Cc1ccccn1)c1cc(C(F)(F)F)c(Cl)c(Cl)n1 [compound 234]
at least 90%: mortality of adults [1] | mortality [2] | mortality [3]

FC(F)(F)c1cc(N(Cc2ccncc2)Cc2ccccn2)nc(Cl)c1Cl [compound 54]
at least 90%: mortality of adults [1] | mortality [2] | mortality [3]

Cc1ncccc1CN(Cc1ccccn1)c1cc(C(F)(F)F)c(C#N)c(C(F)(F)F)n1 [compound 319]
at least 90%: mortality of adults [1] | mortality [2] | mortality [3]
